Laboratory results published in publication PMC9761386.

The chains behind the UniProt entries cited, without tags or fusion partners. Residues count along the entry.
UniProt Q9EP73, residues 19-290: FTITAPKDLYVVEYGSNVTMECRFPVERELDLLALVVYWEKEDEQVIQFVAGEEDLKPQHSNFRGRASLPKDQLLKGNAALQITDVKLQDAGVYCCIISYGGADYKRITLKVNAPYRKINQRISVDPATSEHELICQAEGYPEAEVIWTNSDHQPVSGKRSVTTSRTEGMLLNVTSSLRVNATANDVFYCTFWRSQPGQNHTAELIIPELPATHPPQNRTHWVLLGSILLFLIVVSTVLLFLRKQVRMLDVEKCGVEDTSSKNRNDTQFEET

B1: 2′-5′-Oligoadenylate Synthetase 2 (protein, UniProt E9Q9A9 1-742)
chain: MGNWLTGNWSSDRSSGYSSGWSPGGSSGVPSGPVHKLEKSIQANLTPNENCLKQIAVSSVPSQKLEGYIQENLKPNRESLKQIDQAVDAIWDLLRSQIPVKEVAKGGSYGRETALRGCSDGTLVLFMDCFQQFQDQIKYQDAYLDVIELWLKIHEKKSVKHEHALVVQVSVPGQRILLQLLPVFNPLRSNENPSSCVYVDLKKSMDQVRASPGEFSDCFTTLQQRFFKKYPQRLKDLILLVKHWYEQCQEKWKTPPPQPLLYALELLTVYAWEQGCQAEDFDMAQGVRTVLRLIQRPTELCVYWTVNYNFEDETVRNILLHQLRSQRPVILDPTDPTNNVGKDDGFWELLTEEAMAWLYSPSLNTESPAPYWDVLPMPLFVTPSHLLNKFIKDFLQPNKLFLKQIKEAVDIICSFLKNVCFLNSDTKVLKTVKGGSTAKGTALKRGSDADIVVFLSSLESYDSLKTNRSQFVQEIQKQLEEFVQAQEWEVTFEISKWKAPRVLSFTLKSKTLNESVEFDVLPAYDALGQLRSDFTLRPEAYKDLIELCASQDIKEGEFSICFTELQRNFIQTRPTKLKSLLRLIKHWYKQYERKMKPKASLPPKYALELLTVYAWEQGSGTDDFDIAEGFRTVLDLVIKYRQLCIFWTVNYNFEEEYMRKFLLTQIQKKRPVILDPADPTGDVGGGDRWCWHLLAEEAKEWLSSPCFQVEQKGLVQPWKVPVMQTPGSCGGQIYPTVGGVTK
B2: Rho Gtpase Activating protein 29 (protein, UniProt Q8CGF1 1-1266)
chain: MIAHKQKKAKKKRVWASGQPSAAITTSEMGLKSVSSSSSFDPEYIKELVNDVRKFSHMLLYLKEAILSDCFKEVIHIRLDELLRVLKSILSKHQNLSSVDLQSAAEVLTAKVKAVNFTEVNEENKNDIFREVFSSIETLAFTFGNILTNFLMGDVGSDSILRLPISRESKSFENISVDSVDLPHEKGNFSPIELDNLLLKNTDSIELALSYAKTWSKYTKNIVSWVEKKLNLELESTRNIVKLAEATRSSIGIQEFMPLQSLFTNALLSDIHSSHLLQQTIAALQANKFVQPLLGRKNEMEKQRKEIKDLWKQQQNKLLETETALKKAKLLCMQRQDEYEKAKSSMFRAEEEQLSSSVGLAKNLNKQLEKRRRLEEEALQKVEEANEHYKVCVTNVEERRNDLENTKREILTQLRTLVFQCDLTLKAVTVNLFHMQQLQAASLANSLQSLCDSAKLYDPGQEYSEFVKATSSSELEEKVDGNVNKQMTNSPQTSGYEPADSLEDVARLPDSCHKLEEDRCSNSADMTGPSFVRSWKFGMFSDSESTGGSSESRSLDSESISPGDFHRKLPRTPSSGTMSSADDLDEREPPSPSEAGPNSLGAFKKTLMSKAALTHKFRKLRSPTKCRDCDGIVMFPGVECEECLLVCHRKCLENLVIICGHQKLQGKMHIFGAEFIQVAKKEPDGIPFVLKICASEIENRALCLQGIYRVCGNKIKTEKLCQALENGMHLVDISEFSSHDICDVLKLYLRQLPEPFILFRLYKEFIDLAKEIQHVNEEQEAKKDSPEDKKHPHVSIEVNRILLKSKDLLRQLPASHFNSLHYLIAHLRRVVDHAEENKMNSKNLGVIFGPTLIRPRPTTAPVTISSLAEYSNQARLVEFLITYSQKIFDGSLQPQAVVISNTGAVAPQVDQGYLPKPLLSPDERDTDHSMKPLFFSSKEDIRSSDCESKSFELTTSFEESERRQNALGKCDAPLLDNKVHLLFDQEHESASQKMEDVCKSPKLLLLKSNRAANSVQRHTPRTKMRPVSLPVDRLLLLASSPTERSSRDVGNVDSDKFGKNPAFEGLHRKDNSNTTRSKVNGFDQQNVQKSWDTQYVRNNFTAKTTMIVPSAYPEKGLTVNTGNNRDHPGSKAHAEPARAAGDVSERRSSDSCPATAVRAPRTLQPQHWTTFYKPPNPTFSVRGTEEKTALPSIAVPPVLVHAPQIHVTKSDPDSEATLACPVQTSGQPKESSEEPALPEGTPTCQRPRLKRMQQFEDLEDEIPQFV
B3: Rho GTPase Activating Protein 35 (protein, UniProt Q91YM2 1-1499)
chain: MMMARKQDVRIPTYNISVVGLSGTEKEKGQCGIGKSCLCNRFVRPSADEFHLDHTSVLSTSDFGGRVVNNDHFLYWGEVSRSLEDCVECKMHIVEQTEFIDDQTFQPHRSTALQPYIKRAAATKLASAEKLMYFCTDQLGLEQDFEQKQMPDGKLLVDGFLLGIDVSRGMNRNFDDQLKFVSNLYNQLAKTKKPIVVVLTKCDEGVERYIRDAHTFALSKKNLQVVETSARSNVNVDLAFSTLVQLIDKSRGKTKIIPYFEALKQQSQQIATAKDKYEWLVSRIVKNHNENWPSVSRKMQASPEYQDYVYLEGTQKAKKLFLQHIHRLKHEHIERRRKLYLAALPLAFEALIPNLDEVDHLSCIKAKKLLETKPEFLKWFVVLEETPWDATSHIDNMENERIPFDLMDTVPAEQLYETHLEKLRNERKRAEMRRAFKENLETSPFITPGKPWEEARSFIMNEDFYQWLEESVYMDIYGKHQKQIIDRAKEEFQELLLEYSELFYELELDAKPSKEKMGVIQDVLGEEQRFKALQKLQAERDALILKHIHFVYHPTKETCPSCPACVDAKIEHLISSRFIRPSDRNQKNSLSDLNIDRINLVILGKDGLARELANEIRALCTNDDKYVIDGKMYELSLRPIEGNVRLPVNSFQTPTFQPHGCLCLYNSKESLSYVVESIEKSRESTLGRRDNHLVHLPLTLILVNKRGDTSGETLHSLIQQGQQIASKLQCVFLDPASAGIGYGRNINEKQISQVLKGLLDSKRNLNLVSSTASIKDLADVDLRIVMCLMCGDPFSADDVLSPVLQSQTCKSSHCGSSNSVLLELPIGLHKKRIELSVLSYHSSFSIRKSRLVHGYIVFYSAKRKASLAMLRAFLCEVQDIIPIQLVALTDGAIDVLDNDLSREQLTEGEEIAQEIDGRFTSIPCSQPQHKLELFHPFFKDVVEKKNIIEATHMYDNVAEACSTTEEVFNSPRAGSPLCNSNLQDSEEDVEPPSYHLFREDATLPSLSKDHSKFSMELEGNDGLSFIMSNFESKLNNKVPPPVKPKPPVHFDITKDLSYLDQGHREGQRKSMSSSPWMPQDGFDPSDYAEPMDAVVKPRNEEENIYSVPHDSTQGKIITIRNINKAQSNGSGNGSDSEMDTSSLERGRKVSAVSKPVLYRTRCTRLGRFASYRTSFSVGSDDELGPIRKKEEDQASQGYKGDNAVIPYETDEDPRRRNILRSLRRNTKKPKPKPRPSITKATWESNYFGVPLTTVVTPEKPIPIFIERCIEYIEATGLSTEGIYRVSGNKSEMESLQRQFDQDHNLDLAEKDFTVNTVAGAMKSFFSELPDPLVPYSMQIDLVEAHKINDREQKLHALKEVLKKFPKENHEVFKYVISHLNKVSHNNKVNLMTSENLSICFWPTLMRPDFSSMDALTATRSYQTIIELFIQQCPFFFYNRPISEPPGAAPGSPSAMAPTVPFLTSTPATSQPSPPQSPPPTPQSPMQPLLSSQLQAEHTL
B4: Glutathione Peroxidase 7 (protein, UniProt Q99LJ6 19-186)
chain: QSEQDFYDFKAVNIRGKLVSLEKYRGSVSLVVNVASECGFTDQNYRALQQLQRDLGPHHFNVLAFPCNQFGQQEPDTNREIENFARRTYSVSFPMFSKIAVTGTGAHPAFKYLTQTSGKEPTWNFWKYLVDPDGKVVGAWDPTVPVAEIKPRITEQVMKLILRKREDL
B5: ARF GTPase-activating protein GIT1 (protein, UniProt Q68FF6 1-770)
chain: MSRKGPRAEVCADCSAPDPGWASISRGVLVCDECCSVHRSLGRHISIVKHLRHSAWPPTLLQMVHTLASNGANSIWEHSLLDPAQVQSGRRKANPQDKVHPIKSEFIRAKYQMLAFVHKLPCRDDDGVTAKDLSKQLHSSVRTGNLETCLRLLSLGAQANFFHPEKGTTPLHVAAKAGQTLQAELLVVYGADPGSPDVNGRTPIDYARQAGHHELAERLVECQYELTDRLAFYLCGRKPDHKNGHYIIPQMADRSRQKCMSQSLDLSELAKAAKKKLQALSNRLFEELAMDVYDEVDRRENDAVWLATQNHSTLVTERSAVPFLPVNPEYSATRNQGRQKLARFNAREFATLIIDILSEAKRRQQGKSLSSPTDNLELSARSQSELDDQHDYDSVASDEDTDQEPLPSAGATRNNRARSMDSSDLSDGAVTLQEYLELKKALATSEAKVQQLMKVNSSLSDELRRLQREIHKLQAENLQLRQPPGPVPPPSLPSERAEHTLMGPGGSTHRRDRQAFSMYEPGSALKPFGGTPGDELATRLQPFHSTELEDDAIYSVHVPAGLYRIRKGVSASSVPFTPSSPLLSCSQEGSRHASKLSRHGSGADSDYENTQSGDPLLGLEGKRFLELSKEDELHPELESLDGDLDPGLPSTEDVILKTEQVTKNIQELLRAAQEFKHDSFVPCSEKIHLAVTEMASLFPKRPALEPVRSSLRLLNASAYRLQSECRKTVPPEPGAPVDFQLLTQQVIQCAYDIAKAAKQLVTITTREKKQ

The binders below were run against WT PD-L1 (programmed death ligand 1) tagged with GFP (mouse) (UniProt Q9EP73) (assay: affinity purification with mass spectrometry; GFP-tagged PD-L1 precipitated from SVEC4-10 lysate overnight with GST-tagged anti-GFP nanobody on GST beads, washed 4x in TBS with 0.1% Tween-20; cells with or without sodium vanadate; in-gel trypsin digest, LC-MS/MS; N = 6 samples per cell type).

Binder	binding
B1	binds
B2	binds
B3	binds
B4	binds
B5	binds

These are yes or no findings as the source states them, for the method shown. Binding seen in cells or lysates may run through a third protein. A yes stands for co-enrichment or nearness to the bait. Other partners may have been found.
